Assay [1] concerns the target Hsp83-FLAG (Drosophila melanogaster) (UniProt P02828). Description: co-IP; Kc cells co-transfected with two tagged proteins, DMSO or methoprene (JHA) 2 h; NP-40 lysate; IP with anti-FLAG and protein A/G agarose, 4°C; western blot (Figures 6C, D, E, G, H, 8D).
Assay [2] has as its target T1, Gce-FLAG (Germ-cell expressed, full length) (Drosophila melanogaster) (UniProt Q9VXW7).
T1 sequence: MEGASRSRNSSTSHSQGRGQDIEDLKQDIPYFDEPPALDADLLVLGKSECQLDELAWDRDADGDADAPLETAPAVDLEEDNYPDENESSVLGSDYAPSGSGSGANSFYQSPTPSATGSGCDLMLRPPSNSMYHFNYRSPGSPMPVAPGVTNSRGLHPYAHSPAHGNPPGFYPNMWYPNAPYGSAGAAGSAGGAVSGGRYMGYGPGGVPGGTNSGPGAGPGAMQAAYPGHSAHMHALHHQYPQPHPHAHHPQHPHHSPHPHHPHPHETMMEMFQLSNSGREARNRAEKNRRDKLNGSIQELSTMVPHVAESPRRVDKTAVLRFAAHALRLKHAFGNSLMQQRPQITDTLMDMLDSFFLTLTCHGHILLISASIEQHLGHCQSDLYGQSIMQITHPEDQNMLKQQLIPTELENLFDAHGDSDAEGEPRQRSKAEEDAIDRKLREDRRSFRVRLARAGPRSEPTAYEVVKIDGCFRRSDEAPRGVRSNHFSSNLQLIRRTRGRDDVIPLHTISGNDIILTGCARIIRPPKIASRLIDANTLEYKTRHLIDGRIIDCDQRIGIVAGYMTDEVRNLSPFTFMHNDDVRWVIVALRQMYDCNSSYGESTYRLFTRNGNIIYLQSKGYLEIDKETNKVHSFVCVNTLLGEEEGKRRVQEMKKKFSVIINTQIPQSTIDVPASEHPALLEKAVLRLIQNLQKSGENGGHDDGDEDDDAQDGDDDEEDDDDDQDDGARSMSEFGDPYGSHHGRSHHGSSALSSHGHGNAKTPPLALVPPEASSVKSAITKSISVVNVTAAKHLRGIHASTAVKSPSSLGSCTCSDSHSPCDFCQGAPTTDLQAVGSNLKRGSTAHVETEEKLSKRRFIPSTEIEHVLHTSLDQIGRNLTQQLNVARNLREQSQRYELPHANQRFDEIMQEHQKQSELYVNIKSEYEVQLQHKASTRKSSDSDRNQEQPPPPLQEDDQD
The assay is described as above.

The target of assay [3] is T2, 14-3-3ζ-HA (Drosophila melanogaster) (UniProt P29310).
T2 sequence: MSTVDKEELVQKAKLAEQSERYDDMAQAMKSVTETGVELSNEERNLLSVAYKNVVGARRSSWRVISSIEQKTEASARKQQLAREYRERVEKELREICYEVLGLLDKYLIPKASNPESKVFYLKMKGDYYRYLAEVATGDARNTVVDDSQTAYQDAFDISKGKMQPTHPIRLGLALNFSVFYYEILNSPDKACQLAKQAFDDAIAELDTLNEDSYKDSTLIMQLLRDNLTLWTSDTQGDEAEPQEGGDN
Description: co-IP; Kc cells co-transfected with 14-3-3ζ-HA and Hsp83-V5 or Hsp83 S219A-V5, DMSO or methoprene (JHA) 2 h; NP-40 lysate; IP with anti-HA and protein A/G agarose, 4°C; blot for V5 (Figures 6F, 8C).

The target in assay [4] is Hsp83-V5 (Drosophila melanogaster) (UniProt P02828). Description: co-IP; Kc cells co-expressing Hsp83, Met/Gce and 14-3-3, with JHA; IP with anti-HA and with anti-V5; western blot (Figure 6I).

No constants are given. Whether binding was seen depends on the method and setting. Binding seen in cells or lysates may run through a third protein. Some entries that bind do so weakly or less than the wild type. Sequences can lack the tags named with a protein.

Consider “14-3-3ε-HA (from UniProt P92177-3 1-262)”, for which, in assay [1], the binding entry was “binds”.

For the molecule Hsp83-V5 (from UniProt P02828 1-717), the binding entry in assay [2] and in assay [3] was “binds” each time. “Hsp83^S219A-V5 (from UniProt P02828 1-717)”: the binding result in assay [3] is “binds”.

B1: 14-3-3ζ-HA (protein, UniProt P29310-1 1-248)
chain: T2 sequence
For B1, the binding result in assay [1] is reported as “binds”.

B2: Gce-FLAG (Germ-cell expressed, full length) (protein, UniProt Q9VXW7 1-959)
chain: T1 sequence
On to B2, for which the binding entry in assay [4] is given as “binds”.

The values are drawn from publication PMC9091338.
